Experimental findings from article PMC6259099 are described below.

No constants are given. Whether binding was seen depends on the method and setting. Binding seen in cells or lysates may run through a third protein. A result given as binding can be weak or reduced; the word gives no strength.

The assay addresses T1, Siah1 (UniProt Q920M9).
T1 sequence: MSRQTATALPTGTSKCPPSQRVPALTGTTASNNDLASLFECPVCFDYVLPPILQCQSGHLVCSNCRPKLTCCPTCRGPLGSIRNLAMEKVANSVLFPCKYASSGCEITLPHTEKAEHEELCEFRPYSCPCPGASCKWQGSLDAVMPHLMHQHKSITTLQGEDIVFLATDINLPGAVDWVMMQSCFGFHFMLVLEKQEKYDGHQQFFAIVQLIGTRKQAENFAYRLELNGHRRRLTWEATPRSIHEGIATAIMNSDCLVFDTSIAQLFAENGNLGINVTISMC
The assay can be described thus: co-IP; lysates of CSM14.1 cells transiently expressing BAG1 or BAGΔC; lysis buffer 50 mM TRIS-HCl pH 7.4, 150 mM NaCl, 1% Triton-X 100; affinity beads and pulldown antibody against Siah1, 4 °C overnight; immunoblot.

In the case of “Bcl-2-associated athanogene-1 (BAG1), full length”, the binding result is given as “binds”.

In the case of “BAGΔC, C-terminal deletion mutant of BAG1 (domain or fragment)”, the binding entry was “no binding”.
